For at least one entry, the source does not settle the construct or the ends of the probe. Results from cells or extracts need not show a direct contact. For some assays here: Negatives hold for the conditions tested. Tags and fusion partners may be left off the protein sequences shown.

Series [1] deals with T1, lyc IRF3 (Larimichthys crocea) (UniProt H9C809).
T1 sequence (looked up, limits assumed): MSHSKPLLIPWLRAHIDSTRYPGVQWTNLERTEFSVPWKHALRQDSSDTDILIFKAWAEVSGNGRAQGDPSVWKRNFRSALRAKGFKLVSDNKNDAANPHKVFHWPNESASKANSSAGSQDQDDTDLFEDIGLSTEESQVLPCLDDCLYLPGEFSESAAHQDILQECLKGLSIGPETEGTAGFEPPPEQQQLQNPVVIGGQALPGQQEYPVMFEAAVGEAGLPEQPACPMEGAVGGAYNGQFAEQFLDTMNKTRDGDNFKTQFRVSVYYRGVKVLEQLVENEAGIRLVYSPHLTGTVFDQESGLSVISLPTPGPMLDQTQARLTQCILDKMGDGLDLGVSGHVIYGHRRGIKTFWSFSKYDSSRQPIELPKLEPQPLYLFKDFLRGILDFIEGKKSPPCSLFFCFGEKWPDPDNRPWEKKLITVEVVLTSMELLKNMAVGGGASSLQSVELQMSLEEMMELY
Kind of series: EMSA. Particulars: Beyotime EMSA/Gel-Shift kit buffer (composition not given), 25 C, 20 min, HEK293T lysate, biotin probe, 100x unlabeled competitor, 4% native PAGE; protein in a lysate after overexpression; protein details: HA (pCMV-HA); label: biotin. A general note: In EMSA bound probe runs differently from free probe, usually more slowly.

In series [2] the target is T2, lyc IRF7 (Larimichthys crocea) (UniProt E5D5L7).
T2 sequence (looked up, limits assumed): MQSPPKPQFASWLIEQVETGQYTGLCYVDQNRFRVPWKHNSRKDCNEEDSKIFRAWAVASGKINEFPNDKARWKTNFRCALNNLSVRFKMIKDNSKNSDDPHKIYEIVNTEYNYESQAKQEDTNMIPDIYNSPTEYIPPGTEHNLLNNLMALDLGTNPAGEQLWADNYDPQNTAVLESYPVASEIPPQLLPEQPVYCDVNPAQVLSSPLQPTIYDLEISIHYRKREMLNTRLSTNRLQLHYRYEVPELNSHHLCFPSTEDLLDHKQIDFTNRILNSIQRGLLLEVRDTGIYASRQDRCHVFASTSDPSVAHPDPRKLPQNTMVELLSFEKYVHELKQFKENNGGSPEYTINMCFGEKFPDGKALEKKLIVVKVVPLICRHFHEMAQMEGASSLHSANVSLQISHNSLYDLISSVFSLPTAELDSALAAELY
The series can be described thus: EMSA. Particulars: Beyotime EMSA/Gel-Shift kit buffer (composition not given), 25 C, 20 min, HEK293T lysate, biotin probe, 100x unlabeled competitor, 4% native PAGE; protein in a lysate after overexpression; protein details: HA (pCMV-HA); label: biotin.

With “TGAGGAAAATGAAATAGGTG (double strand) [IFNdP(-76~-57) IRF3 site probe WT]”, the binding result in series [1] is on record as “binds”; in series [2] it was “no binding”.

Turning to “TCCTGGAATATGAAATGTCACAA (double strand) [IFNdP(-306~-273) IRF7 site 1 probe WT]”, the binding result in series [2] was “binds”. As to “CTTTGAATGGTAAAAGACT (double strand) [IFNhP(-171~-153) IRF3 site 1 probe WT]”, the binding result is on record as “binds” in series [1] and “no binding” in series [2].

The record behind these values is PMC5013148.
